Compound in the test: Nc1ncnc2c1ncn2[C@@H]1O[C@H](COP(=O)(O)OP(=O)(O)OP(=O)(O)O)[C@@H](O)[C@H]1O [adenosine triphosphate]
Description: NP40-soluble protein abundance relative to vehicle (solubility fold change) (ratio); higher = more soluble protein in presence of ATP. Summed up:
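Across three independent experiments, values are fold changes against the detergent-processed vehicle for each replicate, based on vsn-normalised intensities. The samples were Jurkat crude lysate treated with eight concentrations (0.1 to 10 mM) for 10 min at room temperature and then 3 min at 37 °C. Lysate was solubilised with 0.8% NP40 and benzonase, ultracentrifuged, and the supernatant analysed by TMT-labelled LC-MS/MS.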

Sequences of proteins named here, by UniProt entry; tags and fusion partners are left off. A change or cut given only in a name is not applied to a line headed by its entry.
UniProt P12544: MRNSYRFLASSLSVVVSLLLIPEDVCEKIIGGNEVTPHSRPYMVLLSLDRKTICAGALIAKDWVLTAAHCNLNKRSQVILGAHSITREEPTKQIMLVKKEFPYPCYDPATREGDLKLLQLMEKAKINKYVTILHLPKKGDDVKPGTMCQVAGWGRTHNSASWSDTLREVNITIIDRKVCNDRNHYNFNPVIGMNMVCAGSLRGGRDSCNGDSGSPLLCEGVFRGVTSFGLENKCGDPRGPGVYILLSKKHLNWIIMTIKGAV
UniProt P06748, whole entry: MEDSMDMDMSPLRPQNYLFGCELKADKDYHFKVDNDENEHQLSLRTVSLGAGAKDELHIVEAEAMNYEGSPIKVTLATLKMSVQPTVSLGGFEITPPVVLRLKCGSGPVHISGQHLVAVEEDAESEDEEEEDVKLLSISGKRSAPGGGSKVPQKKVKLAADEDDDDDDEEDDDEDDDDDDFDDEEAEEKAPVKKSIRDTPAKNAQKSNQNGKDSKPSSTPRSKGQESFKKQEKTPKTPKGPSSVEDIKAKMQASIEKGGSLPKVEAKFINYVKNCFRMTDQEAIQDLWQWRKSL
UniProt P11940, whole entry: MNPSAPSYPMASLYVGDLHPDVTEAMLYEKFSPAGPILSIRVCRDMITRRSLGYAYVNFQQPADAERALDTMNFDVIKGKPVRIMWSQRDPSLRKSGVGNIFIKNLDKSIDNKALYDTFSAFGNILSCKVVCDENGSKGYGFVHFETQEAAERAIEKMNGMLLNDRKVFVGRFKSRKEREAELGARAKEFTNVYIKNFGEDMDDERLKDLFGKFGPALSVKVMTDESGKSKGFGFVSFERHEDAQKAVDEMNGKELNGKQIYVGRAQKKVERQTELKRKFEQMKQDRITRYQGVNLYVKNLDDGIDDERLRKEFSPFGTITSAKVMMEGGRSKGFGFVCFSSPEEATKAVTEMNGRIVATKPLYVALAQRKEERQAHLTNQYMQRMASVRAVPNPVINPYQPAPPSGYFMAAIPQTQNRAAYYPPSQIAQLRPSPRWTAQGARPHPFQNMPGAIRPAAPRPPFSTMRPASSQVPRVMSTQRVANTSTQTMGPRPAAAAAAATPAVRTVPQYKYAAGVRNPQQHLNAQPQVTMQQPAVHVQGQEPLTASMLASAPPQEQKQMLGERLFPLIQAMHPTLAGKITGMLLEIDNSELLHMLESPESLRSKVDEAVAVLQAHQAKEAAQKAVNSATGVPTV
UniProt P06126: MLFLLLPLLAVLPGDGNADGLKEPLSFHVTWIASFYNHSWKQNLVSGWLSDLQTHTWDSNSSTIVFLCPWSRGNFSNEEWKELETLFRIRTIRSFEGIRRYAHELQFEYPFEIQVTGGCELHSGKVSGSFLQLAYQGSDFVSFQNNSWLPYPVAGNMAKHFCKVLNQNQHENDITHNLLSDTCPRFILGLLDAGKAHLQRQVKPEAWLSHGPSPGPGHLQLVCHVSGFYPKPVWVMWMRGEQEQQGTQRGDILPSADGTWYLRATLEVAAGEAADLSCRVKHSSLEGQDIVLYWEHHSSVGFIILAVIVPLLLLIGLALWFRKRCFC
UniProt P07686: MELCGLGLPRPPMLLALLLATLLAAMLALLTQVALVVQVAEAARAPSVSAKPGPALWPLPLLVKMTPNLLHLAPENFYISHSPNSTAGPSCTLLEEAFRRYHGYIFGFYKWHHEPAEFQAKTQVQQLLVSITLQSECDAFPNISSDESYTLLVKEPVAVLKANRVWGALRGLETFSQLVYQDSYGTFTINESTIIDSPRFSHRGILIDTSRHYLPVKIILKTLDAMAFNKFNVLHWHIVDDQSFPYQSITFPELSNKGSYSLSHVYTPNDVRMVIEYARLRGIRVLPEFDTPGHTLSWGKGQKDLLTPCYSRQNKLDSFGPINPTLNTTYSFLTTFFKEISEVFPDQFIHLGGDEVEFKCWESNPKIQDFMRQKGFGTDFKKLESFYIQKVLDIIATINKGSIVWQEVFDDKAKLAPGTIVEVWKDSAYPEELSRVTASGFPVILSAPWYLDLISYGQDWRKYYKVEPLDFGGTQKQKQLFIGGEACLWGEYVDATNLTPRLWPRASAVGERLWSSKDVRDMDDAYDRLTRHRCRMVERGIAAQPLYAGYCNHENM
UniProt P07339: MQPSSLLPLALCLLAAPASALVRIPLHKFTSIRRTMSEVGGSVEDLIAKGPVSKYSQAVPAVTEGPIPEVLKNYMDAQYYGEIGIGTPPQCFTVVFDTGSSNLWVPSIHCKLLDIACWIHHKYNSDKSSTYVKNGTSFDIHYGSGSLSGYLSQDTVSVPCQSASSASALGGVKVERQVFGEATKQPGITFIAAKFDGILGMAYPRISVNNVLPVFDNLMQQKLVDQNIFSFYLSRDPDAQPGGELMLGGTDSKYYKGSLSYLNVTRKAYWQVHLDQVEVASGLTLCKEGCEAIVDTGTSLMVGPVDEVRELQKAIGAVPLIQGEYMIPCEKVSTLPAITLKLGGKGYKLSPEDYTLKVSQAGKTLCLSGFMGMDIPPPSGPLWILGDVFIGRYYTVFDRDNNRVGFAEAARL
UniProt P00813: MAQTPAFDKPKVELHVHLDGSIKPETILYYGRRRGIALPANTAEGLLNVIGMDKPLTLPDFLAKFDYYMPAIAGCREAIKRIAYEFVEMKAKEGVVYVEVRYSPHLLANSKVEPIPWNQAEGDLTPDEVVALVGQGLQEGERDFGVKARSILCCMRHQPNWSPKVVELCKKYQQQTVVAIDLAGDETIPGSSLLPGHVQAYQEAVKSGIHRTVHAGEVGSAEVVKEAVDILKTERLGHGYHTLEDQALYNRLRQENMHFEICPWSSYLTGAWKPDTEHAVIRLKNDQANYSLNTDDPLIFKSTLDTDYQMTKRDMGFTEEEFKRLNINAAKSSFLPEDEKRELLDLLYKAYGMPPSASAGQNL
UniProt P08240: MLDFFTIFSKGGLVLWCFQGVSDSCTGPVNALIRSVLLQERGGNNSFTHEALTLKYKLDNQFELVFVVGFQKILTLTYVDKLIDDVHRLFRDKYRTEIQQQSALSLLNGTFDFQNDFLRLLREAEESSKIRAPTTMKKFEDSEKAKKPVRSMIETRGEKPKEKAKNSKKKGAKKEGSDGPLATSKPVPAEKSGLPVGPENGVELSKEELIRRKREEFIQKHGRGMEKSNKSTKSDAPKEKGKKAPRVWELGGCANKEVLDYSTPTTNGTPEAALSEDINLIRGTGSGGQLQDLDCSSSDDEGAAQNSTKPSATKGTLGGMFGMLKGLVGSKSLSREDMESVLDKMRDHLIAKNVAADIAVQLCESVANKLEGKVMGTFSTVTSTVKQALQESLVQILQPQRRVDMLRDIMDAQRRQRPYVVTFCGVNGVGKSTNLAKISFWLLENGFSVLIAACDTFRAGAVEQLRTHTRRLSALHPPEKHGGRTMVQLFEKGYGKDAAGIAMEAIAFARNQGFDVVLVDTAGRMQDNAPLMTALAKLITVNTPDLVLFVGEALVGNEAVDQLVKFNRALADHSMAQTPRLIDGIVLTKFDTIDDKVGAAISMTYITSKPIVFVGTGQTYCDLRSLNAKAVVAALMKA
UniProt P13929, whole entry: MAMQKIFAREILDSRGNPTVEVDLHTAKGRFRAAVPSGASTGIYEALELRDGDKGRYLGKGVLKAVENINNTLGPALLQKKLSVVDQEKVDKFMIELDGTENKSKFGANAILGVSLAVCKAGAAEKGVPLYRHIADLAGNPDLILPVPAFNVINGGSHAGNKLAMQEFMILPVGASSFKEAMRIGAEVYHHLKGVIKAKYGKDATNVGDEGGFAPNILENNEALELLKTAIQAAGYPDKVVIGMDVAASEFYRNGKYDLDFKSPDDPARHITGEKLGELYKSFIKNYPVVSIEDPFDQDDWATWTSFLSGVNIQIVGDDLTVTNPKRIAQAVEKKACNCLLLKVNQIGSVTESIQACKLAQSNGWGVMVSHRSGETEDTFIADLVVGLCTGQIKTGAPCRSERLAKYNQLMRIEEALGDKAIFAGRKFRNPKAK
UniProt P14317: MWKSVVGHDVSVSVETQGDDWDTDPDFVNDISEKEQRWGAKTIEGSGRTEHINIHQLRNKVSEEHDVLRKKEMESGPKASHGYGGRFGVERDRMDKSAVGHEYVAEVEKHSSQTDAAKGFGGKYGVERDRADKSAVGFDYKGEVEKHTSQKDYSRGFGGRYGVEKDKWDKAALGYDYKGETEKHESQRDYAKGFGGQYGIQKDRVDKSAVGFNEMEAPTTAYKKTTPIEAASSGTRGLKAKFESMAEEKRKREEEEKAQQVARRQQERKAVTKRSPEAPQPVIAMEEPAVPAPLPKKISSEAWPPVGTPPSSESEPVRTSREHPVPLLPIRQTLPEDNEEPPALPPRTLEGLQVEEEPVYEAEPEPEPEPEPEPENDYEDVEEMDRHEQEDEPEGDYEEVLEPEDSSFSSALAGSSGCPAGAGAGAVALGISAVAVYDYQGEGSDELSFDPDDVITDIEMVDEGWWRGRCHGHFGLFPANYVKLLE
UniProt P11766: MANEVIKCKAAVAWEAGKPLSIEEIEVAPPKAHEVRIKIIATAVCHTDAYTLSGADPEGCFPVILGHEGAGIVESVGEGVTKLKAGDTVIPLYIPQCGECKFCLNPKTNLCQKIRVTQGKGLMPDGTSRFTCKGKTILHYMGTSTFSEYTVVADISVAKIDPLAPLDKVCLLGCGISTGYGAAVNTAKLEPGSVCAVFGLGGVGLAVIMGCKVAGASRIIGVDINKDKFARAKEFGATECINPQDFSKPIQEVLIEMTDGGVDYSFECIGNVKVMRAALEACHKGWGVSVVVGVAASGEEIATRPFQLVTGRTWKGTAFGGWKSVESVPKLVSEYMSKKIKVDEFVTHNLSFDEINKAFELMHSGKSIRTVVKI
UniProt P13804: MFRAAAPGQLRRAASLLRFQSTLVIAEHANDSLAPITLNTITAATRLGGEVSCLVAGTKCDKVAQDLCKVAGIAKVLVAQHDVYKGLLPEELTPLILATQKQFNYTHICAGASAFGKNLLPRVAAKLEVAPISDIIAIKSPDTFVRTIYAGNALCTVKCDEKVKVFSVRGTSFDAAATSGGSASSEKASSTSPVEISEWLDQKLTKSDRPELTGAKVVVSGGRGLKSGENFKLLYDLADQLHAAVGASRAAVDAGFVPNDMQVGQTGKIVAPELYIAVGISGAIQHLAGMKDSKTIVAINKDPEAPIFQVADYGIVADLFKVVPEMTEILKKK
UniProt O95926: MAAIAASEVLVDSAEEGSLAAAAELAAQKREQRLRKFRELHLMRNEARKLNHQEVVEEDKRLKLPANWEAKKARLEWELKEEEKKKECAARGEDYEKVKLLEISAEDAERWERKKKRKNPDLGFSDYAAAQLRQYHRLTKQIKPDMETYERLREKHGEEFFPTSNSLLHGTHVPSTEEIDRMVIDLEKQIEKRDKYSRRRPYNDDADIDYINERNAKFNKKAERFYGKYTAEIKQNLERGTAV
UniProt P00491: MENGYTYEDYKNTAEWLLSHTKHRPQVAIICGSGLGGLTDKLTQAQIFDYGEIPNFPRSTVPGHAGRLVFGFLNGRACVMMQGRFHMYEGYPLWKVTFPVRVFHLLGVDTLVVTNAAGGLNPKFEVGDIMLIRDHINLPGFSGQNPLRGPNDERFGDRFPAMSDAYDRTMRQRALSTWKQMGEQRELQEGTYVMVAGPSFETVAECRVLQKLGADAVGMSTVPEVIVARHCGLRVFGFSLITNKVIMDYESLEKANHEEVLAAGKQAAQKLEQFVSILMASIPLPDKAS
UniProt O96007: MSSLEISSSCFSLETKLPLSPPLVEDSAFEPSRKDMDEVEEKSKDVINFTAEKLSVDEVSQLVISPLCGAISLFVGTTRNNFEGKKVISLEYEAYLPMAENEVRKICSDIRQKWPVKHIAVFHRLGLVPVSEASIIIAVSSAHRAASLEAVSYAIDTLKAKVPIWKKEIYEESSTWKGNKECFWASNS
UniProt O96033: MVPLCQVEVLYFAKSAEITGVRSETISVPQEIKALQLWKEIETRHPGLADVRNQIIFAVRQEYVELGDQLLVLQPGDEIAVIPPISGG
UniProt P06729: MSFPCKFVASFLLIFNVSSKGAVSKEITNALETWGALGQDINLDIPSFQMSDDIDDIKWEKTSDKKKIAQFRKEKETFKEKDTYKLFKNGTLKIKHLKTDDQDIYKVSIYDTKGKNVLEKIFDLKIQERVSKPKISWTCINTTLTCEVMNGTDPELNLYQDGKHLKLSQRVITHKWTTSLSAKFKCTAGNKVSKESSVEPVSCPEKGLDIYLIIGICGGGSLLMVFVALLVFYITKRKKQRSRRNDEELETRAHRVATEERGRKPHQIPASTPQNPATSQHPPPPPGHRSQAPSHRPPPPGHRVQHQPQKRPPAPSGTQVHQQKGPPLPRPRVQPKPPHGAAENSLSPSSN
UniProt P13073, whole entry: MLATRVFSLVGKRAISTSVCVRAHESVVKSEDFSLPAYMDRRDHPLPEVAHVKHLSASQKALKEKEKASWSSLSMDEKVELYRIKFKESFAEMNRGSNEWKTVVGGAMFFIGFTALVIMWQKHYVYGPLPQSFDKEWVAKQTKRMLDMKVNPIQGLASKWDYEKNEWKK

These results are taken from the supplement of paper PMC6411743.

± gives the standard deviation of the averaged measurements. Only a part is listed here, and it is no random draw. Small differences around the control level are noise.

UniProt P12544 and related entries: the NP40-soluble protein abundance reads like this: (concentration: 0.1mM) 1.09 ± 0.1; (concentration: 0.5mM) 1.08 ± 0.22.

As to PAK4 (UniProt O96013), the NP40-soluble protein abundance by setting is: (concentration: 0.1mM) 1.02 ± 0.024; (concentration: 0.5mM) 1.06 ± 0.07.

Take UniProt P06748 and related entries: the NP40-soluble protein abundance is, setting by setting: (concentration: 0.1mM) 0.957 ± 0.022; (concentration: 0.5mM) 0.9973 ± 0.0059.

For UniProt P11940 and related entries, the NP40-soluble protein abundance was 0.996 ± 0.1 (concentration: 0.1mM) and 1.05 ± 0.084 (concentration: 0.5mM).

UniProt P06126: the NP40-soluble protein abundance came to 0.993 ± 0.031 (concentration: 0.1mM) and 0.907 ± 0.1 (concentration: 0.5mM).

Regarding HEXB (UniProt P07686), the NP40-soluble protein abundance (concentration: 0.1mM) was 0.972 ± 0.027 and the NP40-soluble protein abundance (concentration: 0.5mM) was found to be 0.972 ± 0.02.

Regarding UniProt P11310 and related entries, the NP40-soluble protein abundance was 1.01 ± 0.036 (concentration: 0.1mM) and 1.02 ± 0.059 (concentration: 0.5mM).

In the case of CTSD (UniProt P07339), the NP40-soluble protein abundance is, setting by setting: (concentration: 0.1mM) 0.978 ± 0.029; (concentration: 0.5mM) 0.994 ± 0.024.

On to ADA (UniProt P00813), for which the NP40-soluble protein abundance came to 1.06 ± 0.15 (concentration: 0.1mM) and 0.881 ± 0.17 (concentration: 0.5mM).

Consider UniProt P08240, for which the NP40-soluble protein abundance by setting is: (concentration: 0.1mM) 1.05 ± 0.067; (concentration: 0.5mM) 1.04 ± 0.048.

Take UniProt P13929 and related entries: the NP40-soluble protein abundance came to 1.01 ± 0.07 (concentration: 0.1mM) and 1.05 ± 0.033 (concentration: 0.5mM).

Take HCLS1 (UniProt P14317): the NP40-soluble protein abundance is, setting by setting: (concentration: 0.1mM) 0.975 ± 0.015; (concentration: 0.5mM) 0.99 ± 0.053.

With ADH5 (UniProt P11766), the NP40-soluble protein abundance by setting is: (concentration: 0.1mM) 0.96 ± 0.049; (concentration: 0.5mM) 1.01 ± 0.037.

UniProt O95834-2|O95834-3|O95834: the NP40-soluble protein abundance by setting is: (concentration: 0.1mM) 1.05 ± 0.12; (concentration: 0.5mM) 1.06 ± 0.073.

For the target ETFA (UniProt P13804), the NP40-soluble protein abundance runs as follows: (concentration: 0.1mM) 0.985 ± 0.023; (concentration: 0.5mM) 1 ± 0.052.

In the case of SYF2 (UniProt O95926), the NP40-soluble protein abundance turned out to be 0.712 ± 0.084 (concentration: 0.1mM) and 0.671 ± 0.071 (concentration: 0.5mM).

In the case of UniProt P16298 and related entries, the NP40-soluble protein abundance came out at 1 ± 0.033 (concentration: 0.1mM) and 1.01 ± 0.02 (concentration: 0.5mM).

Turning to UniProt P00491, the NP40-soluble protein abundance is, setting by setting: (concentration: 0.1mM) 1 ± 0.075; (concentration: 0.5mM) 0.986 ± 0.018.

Take “O96007 and related entries (UniProt O96033+O96007)”: the NP40-soluble protein abundance runs as follows: (concentration: 0.1mM) 0.978 ± 0.034; (concentration: 0.5mM) 0.999 ± 0.019.

Consider UniProt P06729, for which the NP40-soluble protein abundance stood at 0.921 ± 0.011 (concentration: 0.1mM) and 0.943 ± 0.019 (concentration: 0.5mM).

For VIM (UniProt P08670), the NP40-soluble protein abundance (concentration: 0.1mM) was 0.972 ± 0.035 and the NP40-soluble protein abundance (concentration: 0.5mM) came out at 0.987 ± 0.033.

Consider COX4I1 (UniProt P13073), for which the NP40-soluble protein abundance reads like this: (concentration: 0.1mM) 0.944 ± 0.033; (concentration: 0.5mM) 0.921 ± 0.063.
